{"source": "PubChem BioAssay AID1159578 – Peter MacCallum Cancer Centre, 2015", "test": "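Genome-wide hunt for genes controlling movement of lymphatic endothelial cells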 (primary screen)", "cells": "human lymphatic endothelial cells", "knock-down reagent": "siRNA pool against human genes, 40 nM", "duration": "48 h after transfection", "read-out": "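High-content imaging of dye-stained cells in a scratch assay measures filled wound area and nuclei per well; duplicate means given as ratio to mock and robust z-score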", "reading the numbers": "migration robust z-score: higher = faster migration into the scratch; nuclei per well: higher = more cells in the well", "hit rule": "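Migration changed when robust z exceeds 2 or falls below -2 and mean nuclei number is at least 3300; otherwise not called changed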", "meaning of the calls": "active = migration changed; inactive = no migration change, or too few cells", "note": "Here is one part, drawn at random, of about 18,000 reagents. Of all reagents, about 1,030 (5.7%) got an active call. 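Inactive calls also include pools with fewer than 3300 nuclei, whose migration was not assessed.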 Raw values vary from plate to plate and are shown uncorrected. A number with no mark means an inactive call. Further read-outs or replicates are left out here."}
{"gene": "RFPL4B (ret finger protein like 4B)", "migration robust z-score": 0.83, "nuclei per well, duplicate mean": 5194}
{"gene": "BARHL1 (BarH like homeobox 1)", "migration robust z-score": -0.02, "nuclei per well, duplicate mean": 5714}
{"gene": "PFDN5 (prefoldin subunit 5)", "migration robust z-score": 0.26, "nuclei per well, duplicate mean": 5548}
{"gene": "LENG9 (leukocyte receptor cluster member 9)", "migration robust z-score": -0.56, "nuclei per well, duplicate mean": 5639}
{"gene": "RAP2B (RAP2B, member of RAS oncogene family)", "migration robust z-score": -0.49, "nuclei per well, duplicate mean": 7452}
{"gene": "IFNG (interferon gamma)", "migration robust z-score": 0.52, "nuclei per well, duplicate mean": 5676}
{"gene": "SLC25A42", "migration robust z-score": -0.5, "nuclei per well, duplicate mean": 6570}
{"gene": "ADCYAP1 (adenylate cyclase activating polypeptide 1)", "migration robust z-score": -1.29, "nuclei per well, duplicate mean": 5430}
{"gene": "FKBP9 (FKBP prolyl isomerase 9)", "migration robust z-score": 0.13, "nuclei per well, duplicate mean": 6228}
{"gene": "LGMN (legumain)", "migration robust z-score": 0.36, "nuclei per well, duplicate mean": 4865}
{"gene": "LTO1 (LTO1 maturation factor of ABCE1)", "migration robust z-score": -0.6, "nuclei per well, duplicate mean": 5087}
{"gene": "LILRA1 (leukocyte immunoglobulin like receptor A1)", "migration robust z-score": -0.17, "nuclei per well, duplicate mean": 4482}
{"gene": "PLEKHA3 (pleckstrin homology domain containing A3)", "migration robust z-score": -0.01, "nuclei per well, duplicate mean": 6018}
{"gene": "HOXB6 (homeobox B6)", "migration robust z-score": -1.01, "nuclei per well, duplicate mean": 5030}
{"gene": "RNF170 (ring finger protein 170)", "migration robust z-score": 1.53, "nuclei per well, duplicate mean": 6454}
{"gene": "SF1 (splicing factor 1)", "migration robust z-score": 0.16, "nuclei per well, duplicate mean": 5489}
{"gene": "PDK3 (pyruvate dehydrogenase kinase 3)", "migration robust z-score": -1.74, "nuclei per well, duplicate mean": 3528}
{"gene": "CAMKMT (calmodulin-lysine N-methyltransferase)", "migration robust z-score": 0.92, "nuclei per well, duplicate mean": 5004}
{"gene": "RORB (RAR related orphan receptor B)", "migration robust z-score": 1.6, "nuclei per well, duplicate mean": 5578}
{"gene": "ACIN1 (apoptotic chromatin condensation inducer 1)", "migration robust z-score": 0.05, "nuclei per well, duplicate mean": 5594}
{"gene": "CERK (ceramide kinase)", "migration robust z-score": -0.57, "nuclei per well, duplicate mean": 4525}
{"gene": "OR51E2 (olfactory receptor family 51 subfamily E member 2)", "migration robust z-score": -0.25, "nuclei per well, duplicate mean": 5770}
{"gene": "COX10", "migration robust z-score": -0.55, "nuclei per well, duplicate mean": 4228}
{"gene": "NPTXR (neuronal pentraxin receptor)", "migration robust z-score": -0.48, "nuclei per well, duplicate mean": 5256}
{"gene": "MRPS15 (mitochondrial ribosomal protein S15)", "migration robust z-score": 0.17, "nuclei per well, duplicate mean": 5775}
{"gene": "PIH1D2 (PIH1 domain containing 2)", "migration robust z-score": 0.48, "nuclei per well, duplicate mean": 6098}
{"gene": "PLA2G7 (phospholipase A2 group VII)", "migration robust z-score": 0.86, "nuclei per well, duplicate mean": 5519}

Single entries from the entries so far.
RNF170 (ring finger protein 170), nuclei per well, duplicate mean → 6454
Value for COX10 under “migration robust z-score”: -0.55
Value of RORB (RAR related orphan receptor B) in “nuclei per well, duplicate mean”: 5578
Result for RAP2B (RAP2B, member of RAS oncogene family) under “migration robust z-score”: -0.49
